These are yes or no findings as the source states them, for the method shown. In cells and extracts the contact can be indirect. A yes stands for co-enrichment or nearness to the bait. Other partners may have been found. For some assays here: Where a sequence is shown, tags or fusion partners need not be part of it.

Sequences of proteins named here, by UniProt entry; tags and fusion partners are left off.
UniProt P02545: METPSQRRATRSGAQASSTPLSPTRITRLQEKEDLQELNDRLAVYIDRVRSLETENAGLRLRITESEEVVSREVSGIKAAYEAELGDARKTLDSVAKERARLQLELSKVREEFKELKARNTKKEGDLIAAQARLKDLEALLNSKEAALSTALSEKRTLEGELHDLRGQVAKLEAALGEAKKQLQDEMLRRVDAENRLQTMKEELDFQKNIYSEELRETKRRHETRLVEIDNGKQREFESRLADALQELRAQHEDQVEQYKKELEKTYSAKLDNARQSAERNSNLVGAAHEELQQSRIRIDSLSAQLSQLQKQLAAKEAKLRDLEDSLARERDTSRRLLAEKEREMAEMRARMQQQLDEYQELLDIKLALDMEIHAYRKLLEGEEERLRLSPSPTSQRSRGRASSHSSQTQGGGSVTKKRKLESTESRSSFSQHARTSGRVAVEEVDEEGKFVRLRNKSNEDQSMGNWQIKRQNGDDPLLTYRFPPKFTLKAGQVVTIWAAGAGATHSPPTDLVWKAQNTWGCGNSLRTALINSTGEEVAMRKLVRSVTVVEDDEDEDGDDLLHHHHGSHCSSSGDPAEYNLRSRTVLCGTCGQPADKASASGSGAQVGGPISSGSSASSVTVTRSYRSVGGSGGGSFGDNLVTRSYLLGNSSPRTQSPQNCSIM
UniProt P20339: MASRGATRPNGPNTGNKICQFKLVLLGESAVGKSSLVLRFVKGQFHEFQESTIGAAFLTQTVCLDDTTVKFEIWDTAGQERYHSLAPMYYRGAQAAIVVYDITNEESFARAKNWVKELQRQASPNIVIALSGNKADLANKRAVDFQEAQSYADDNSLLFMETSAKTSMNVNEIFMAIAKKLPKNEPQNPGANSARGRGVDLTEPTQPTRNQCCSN

Here are results for eight molecules from publication doi:10.1101/2025.08.29.668156.

What all share (assay): proximity labelling
The target of test [1] is T1, ST6GALNAC1 fused to ultraID (UniProt Q9NSC7).
T1 sequence: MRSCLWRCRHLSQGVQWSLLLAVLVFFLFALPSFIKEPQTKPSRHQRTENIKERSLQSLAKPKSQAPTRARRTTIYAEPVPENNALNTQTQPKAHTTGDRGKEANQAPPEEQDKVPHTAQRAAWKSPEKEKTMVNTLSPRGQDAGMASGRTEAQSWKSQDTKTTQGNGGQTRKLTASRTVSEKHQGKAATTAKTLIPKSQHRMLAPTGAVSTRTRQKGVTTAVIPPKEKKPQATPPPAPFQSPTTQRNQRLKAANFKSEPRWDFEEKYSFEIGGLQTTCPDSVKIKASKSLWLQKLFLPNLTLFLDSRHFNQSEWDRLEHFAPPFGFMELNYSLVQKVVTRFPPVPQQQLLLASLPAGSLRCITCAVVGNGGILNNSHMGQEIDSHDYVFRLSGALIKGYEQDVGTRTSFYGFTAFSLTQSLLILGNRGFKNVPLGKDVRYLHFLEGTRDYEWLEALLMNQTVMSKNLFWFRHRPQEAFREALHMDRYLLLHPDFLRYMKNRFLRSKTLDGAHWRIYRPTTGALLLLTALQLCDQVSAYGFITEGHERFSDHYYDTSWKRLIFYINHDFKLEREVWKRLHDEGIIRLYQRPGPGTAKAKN

The target of test [2] is LMNA N-terminally fused to ultraID (UniProt P02545).
A further test has as its target miniTurbo-RAB5A (UniProt P20339).

B1: CHST12 (protein, UniProt Q9NRB3 1-414)
chain: MTKARLFRLWLVLGSVFMILLIIVYWDSAGAAHFYLHTSFSRPHTGPPLPTPGPDRDRELTADSDVDEFLDKFLSAGVKQSDLPRKETEQPPAPGSMEESVRGYDWSPRDARRSPDQGRQQAERRSVLRGFCANSSLAFPTKERAFDDIPNSELSHLIVDDRHGAIYCYVPKVACTNWKRVMIVLSGSLLHRGAPYRDPLRIPREHVHNASAHLTFNKFWRRYGKLSRHLMKVKLKKYTKFLFVRDPFVRLISAFRSKFELENEEFYRKFAVPMLRLYANHTSLPASAREAFRAGLKVSFANFIQYLLDPHTEKLAPFNEHWRQVYRLCHPCQIDYDFVGKLETLDEDAAQLLQLLQVDRQLRFPPSYRNRTASSWEEDWFAKIPLAWRQQLYKLYEADFVLFGYPKPENLLRD
B1: the binding entry in test [1] is listed as “binds”.

B2: B3GALT6 (protein, UniProt Q96L58 1-329)
chain: MKLLRRAWRRRAALGLGTLALCGAALLYLARCAAEPGDPRAMSGRSPPPPAPARAAAFLAVLVASAPRAAERRSVIRSTWLARRGAPGDVWARFAVGTAGLGAEERRALEREQARHGDLLLLPALRDAYENLTAKVLAMLAWLDEHVAFEFVLKADDDSFARLDALLAELRAREPARRRRLYWGFFSGRGRVKPGGRWREAAWQLCDYYLPYALGGGYVLSADLVHYLRLSRDYLRAWHSEDVSLGAWLAPVDVQREHDPRFDTEYRSRGCSNQYLVTHKQSLEDMLEKHATLAREGRLCKREVQLRLSYVYDWSAPPSQCCQRREGIP
With B2, the binding result in test [1] was “binds”.

B3: …2 (protein, UniProt Q8N6G5 1-542)
chain: MPRRGLILHTRTHWLLLGLALLCSLVLFMYLLECAPQTDGNASLPGVVGENYGKEYYQALLQEQEEHYQTRATSLKRQIAQLKQELQEMSEKMRSLQERRNVGANGIGYQSNKEQAPSDLLEFLHSQIDKAEVSIGAKLPSEYGVIPFESFTLMKVFQLEMGLTRHPEEKPVRKDKRDELVEVIEAGLEVINNPDEDDEQEDEEGPLGEKLIFNENDFVEGYYRTERDKGTQYELFFKKADLTEYRHVTLFRPFGPLMKVKSEMIDITRSIINIIVPLAERTEAFVQFMQNFRDVCIHQDKKIHLTVVYFGKEGLSKVKSILESVTSESNFHNYTLVSLNEEFNRGRGLNVGARAWDKGEVLMFFCDVDIYFSAEFLNSCRLNAEPGKKVFYPVVFSLYNPAIVYANQEVPPPVEQQLVHKKDSGFWRDFGFGMTCQYRSDFLTIGGFDMEVKGWGGEDVHLYRKYLHGDLIVIRTPVPGLFHLWHEKRCADELTPEQYRMCIQSKAMNEASHSHLGMLVFREEIETHLHKQAYRTNSEAVG
Regarding B3, the binding entry in test [1] is on record as “binds”.

B4: NUP93 (protein, UniProt Q8N1F7 1-819)
chain: MDTEGFGELLQQAEQLAAETEGISELPHVERNLQEIQQAGERLRSRTLTRTSQETADVKASVLLGSRGLDISHISQRLESLSAATTFEPLEPVKDTDIQGFLKNEKDNALLSAIEESRKRTFGMAEEYHRESMLVEWEQVKQRILHTLLASGEDALDFTQESEPSYISDVGPPGRSSLDNIEMAYARQIYIYNEKIVNGHLQPNLVDLCASVAELDDKSISDMWTMVKQMTDVLLTPATDALKNRSSVEVRMEFVRQALAYLEQSYKNYTLVTVFGNLHQAQLGGVPGTYQLVRSFLNIKLPAPLPGLQDGEVEGHPVWALIYYCMRCGDLLAASQVVNRAQHQLGEFKTWFQEYMNSKDRRLSPATENKLRLHYRRALRNNTDPYKRAVYCIIGRCDVTDNQSEVADKTEDYLWLKLNQVCFDDDGTSSPQDRLTLSQFQKQLLEDYGESHFTVNQQPFLYFQVLFLTAQFEAAVAFLFRMERLRCHAVHVALVLFELKLLLKSSGQSAQLLSHEPGDPPCLRRLNFVRLLMLYTRKFESTDPREALQYFYFLRDEKDSQGENMFLRCVSELVIESREFDMILGKLENDGSRKPGVIDKFTSDTKPIINKVASVAENKGLFEEAAKLYDLAKNADKVLELMNKLLSPVVPQISAPQSNKERLKNMALSIAERYRAQGISANKFVDSTFYLLLDLITFFDEYHSGHIDRAFDIIERLKLVPLNQESVEERVAAFRNFSDEIRHNLSEVLLATMNILFTQFKRLKGTSPSSSSRPQRVIEDRDSQLRSQARTLITFAGMIPYRTSGDTNARLVQMEVLMN
For B4, in test [2], the binding entry is on record as “binds”.

B5: B4GAT1 (protein, UniProt O43505 1-415)
chain: MQMSYAIRCAFYQLLLAALMLVAMLQLLYLSLLSGLHGQEEQDQYFEFFPPSPRSVDQVKAQLRTALASGGVLDASGDYRVYRGLLKTTMDPNDVILATHASVDNLLHLSGLLERWEGPLSVSVFAATKEEAQLATVLAYALSSHCPDMRARVAMHLVCPSRYEAAVPDPREPGEFALLRSCQEVFDKLARVAQPGINYALGTNVSYPNNLLRNLAREGANYALVIDVDMVPSEGLWRGLREMLDQSNQWGGTALVVPAFEIRRARRMPMNKNELVQLYQVGEVRPFYYGLCTPCQAPTNYSRWVNLPEESLLRPAYVVPWQDPWEPFYVAGGKVPTFDERFRQYGFNRISQACELHVAGFDFEVLNEGFLVHKGFKEALKFHPQKEAENQHNKILYRQFKQELKAKYPNSPRRC
Regarding B5, in test [1], the binding result is recorded as “binds”.

B6: ST13 (protein, UniProt P50502 1-369)
chain: MDPRKVNELRAFVKMCKQDPSVLHTEEMRFLREWVESMGGKVPPATQKAKSEENTKEEKPDSKKVEEDLKADEPSSEESDLEIDKEGVIEPDTDAPQEMGDENAEITEEMMDQANDKKVAAIEALNDGELQKAIDLFTDAIKLNPRLAILYAKRASVFVKLQKPNAAIRDCDRAIEINPDSAQPYKWRGKAHRLLGHWEEAAHDLALACKLDYDEDASAMLKEVQPRAQKIAEHRRKYERKREEREIKERIERVKKAREEHERAQREEEARRQSGAQYGSFPGGFPGGMPGNFPGGMPGMGGGMPGMAGMPGLNEILSDPEVLAAMQDPEVMVAFQDVAQNPANMSKYQSNPKVMNLISKLSAKFGGQA
In the case of B6, the binding entry in the test with miniTurbo-RAB5A is given as “binds”.

B7: CCT2 (protein, UniProt P78371 1-535)
chain: MASLSLAPVNIFKAGADEERAETARLTSFIGAIAIGDLVKSTLGPKGMDKILLSSGRDASLMVTNDGATILKNIGVDNPAAKVLVDMSRVQDDEVGDGTTSVTVLAAELLREAESLIAKKIHPQTIIAGWREATKAAREALLSSAVDHGSDEVKFRQDLMNIAGTTLSSKLLTHHKDHFTKLAVEAVLRLKGSGNLEAIHIIKKLGGSLADSYLDEGFLLDKKIGVNQPKRIENAKILIANTGMDTDKIKIFGSRVRVDSTAKVAEIEHAEKEKMKEKVERILKHGINCFINRQLIYNYPEQLFGAAGVMAIEHADFAGVERLALVTGGEIASTFDHPELVKLGSCKLIEEVMIGEDKLIHFSGVALGEACTIVLRGATQQILDEAERSLHDALCVLAQTVKDSRTVYGGGCSEMLMAHAVTQLANRTPGKEAVAMESYAKALRMLPTIIADNAGYDSADLVAQLRAAHSEGNTTAGLDMREGTIGDMAILGITESFQVKRQVLLSAAEAAEVILRVDNIIKAAPRKRVPDHHPC
B7: the binding result in the test with miniTurbo-RAB5A is reported as “binds”.

B8: CHST14 (protein, UniProt Q8NCH0 1-376)
chain: MFPRPLTPLAAPNGAEPLGRALRRAPLGRARAGLGGPPLLLPSMLMFAVIVASSGLLLMIERGILAEMKPLPLHPPGREGTAWRGKAPKPGGLSLRAGDADLQVRQDVRNRTLRAVCGQPGMPRDPWDLPVGQRRTLLRHILVSDRYRFLYCYVPKVACSNWKRVMKVLAGVLDSVDVRLKMDHRSDLVFLADLRPEEIRYRLQHYFKFLFVREPLERLLSAYRNKFGEIREYQQRYGAEIVRRYRAGAGPSPAGDDVTFPEFLRYLVDEDPERMNEHWMPVYHLCQPCAVHYDFVGSYERLEADANQVLEWVRAPPHVRFPARQAWYRPASPESLHYHLCSAPRALLQDVLPKYILDFSLFAYPLPNVTKEACQQ
B8: the binding entry in test [1] is “binds”.
